Results of single-concentration screens

The values are deposited in ChEMBL (CHEMBL3988442, “University of Dundee, Small-Polar-MMV Screening Library” (2021)).

Values are the deposited “Percent Effect”, in %. The controls that fix the scale are not given in the record; negative values are as filed. Compounds were drawn at random from those tested, without regard to their results.

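Assay of Toxoplasma gondii numbers, read through their beta-galactosidase reporter with a colour substrate. Compounds at 10 µM. The record gives no direction; the compounds picked for IC50 retests had high values, so higher reads as fewer parasites. Size under these conditions: about 67,000 compounds, about 260 of them at 50% or above in at least one test.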

SMILES	percent effect
O=c1ccc(-c2cccs2)nn1CN1CCN(C2CCS(=O)(=O)C2)CC1 (stereo not shown)	-20.22
COc1ccc2c(c1)C1(CCNCC1)CC2NC1CC1.Cl.Cl (stereo not shown)	-5.002
CC(C)Cc1cc(CC2(NCc3ccco3)COC2)no1	16.12
Fc1ccc(CN2CCCn3cnc(COCC4CC4)c3C2)cc1.O=C(O)C(F)(F)F	0
Cc1nccc(CN2CC[C@H](Oc3cccc(F)c3)[C@@](C)(O)C2)n1	-4.564
CC(=O)N1CCC(c2nccnc2-c2ccc(F)c(F)c2)CC1	-12.77
COC(=O)CCC(=O)N1CCC2(CN(Cc3ccccc3)C2)C1	14.63
CC(=O)N1Cc2ccccc2C[C@H]1C(=O)N(C)CCc1ccccn1	-16.36
O=C(CN1CCOCC1)Nc1cc(C(F)(F)F)ccc1-n1cccc1	2.308
O=C(Nc1cc(-c2cccnc2)no1)C1CCCCC1	5.229
CN(C)S(=O)(=O)N1CC[C@]2(C[C@H](OCc3ccncc3)CO2)C1.O=C(O)C(F)(F)F	17.27
[H][C@@]12CN(C(=O)c3cscn3)C[C@]1([H])OCCN2Cc1csc(C)n1	5.521
Cn1cc(C(O)CNC(=O)c2ccc(F)cc2Cl)cn1 (stereo not shown)	-0.04943
CC(NCCCN1CCCN(C)CC1)C(C)(C)C (stereo not shown)	17.76
Cc1ccc(C(=O)N2CCC3(CC(N(C)c4ccncn4)C3)C2)cn1 (stereo not shown)	17.78
CCn1ccnc1CN(C)CC1CCCN1c1cccnn1 (stereo not shown)	-0.2101
CC1CCN(c2ncc(C#N)c(N)n2)CC1	-5.566
CN1CCN(C2CCN(CC(O)c3ccccc3)CC2)C1=O (stereo not shown)	10.51
O=C1CC(c2ccccc2F)c2c(n3ccsc3nc2=O)N1 (stereo not shown)	-2.989
O=C(c1ccc(-n2ccnc2)cc1)N1CCCC(n2ccnc2)C1 (stereo not shown)	-10.77
Cc1nn(-c2ccccc2)c2c1C(c1ccc(C(=O)O)cc1)CC(=O)N2 (stereo not shown)	-6.608
CS(=O)(=O)N1CCCN(c2nccn3cnnc23)CC1	-7.368
O=C([C@H]1CCCO1)N1CC[C@H](O)[C@@H]1Cc1cccnc1	-4.198
Cc1c[nH]c(C(=O)N2CCC(c3nnc(CN(C)CCO)n3C)CC2)c1	7.777
Cc1cccc(C(=O)N2CCSCC2)c1NC(=O)c1cccnc1	-7.242
Cc1noc(C(C)Nc2ccc(N3CCOCC3)cc2C)n1 (stereo not shown)	7.958
CC(C)c1noc(CCCC(=O)N2CCN(C)CC2c2ccccc2)n1 (stereo not shown)	-1.924
O=C(O)C(F)(F)F.[H][C@@]12CCN(Cc3c(C)noc3C)[C@]1([H])CC[C@H](C(=O)N1CCCC1)O2	-0.9852
CCOC(=O)C(C)NC(=O)CCSc1ccc(F)cc1 (stereo not shown)	3.481
Cc1csc2ncc(-c3ccnc(NC4CCOCC4)n3)c(=O)n12	5.866
CC(C)CN1CCCC1c1ccc(C(=O)Nc2cc[nH]n2)s1 (stereo not shown)	0.7859
COc1cn(CC(=O)N2CCN(c3ccc(Cl)cc3)CC2)c(C)cc1=O	-31.13
O=C(NCC1CC1)C1CCC2(CN(C(=O)c3ccno3)C2)O1 (stereo not shown)	-7.5
COc1cc(CNC(=O)Nc2nnc(C(C)C)s2)ccn1	1.035
CCCc1nnc(NC(=O)N2CCCC2c2ccncc2)s1 (stereo not shown)	-0.5708
CCN1C(=O)CC(c2cnn(C)c2)C12CCN(C(=O)c1ccc[nH]1)CC2 (stereo not shown)	-3.228
O=C(O)C(F)(F)F.[H][C@@]12CCN(C(=O)Cc3cccs3)[C@@]1([H])CC(=O)N2Cc1ccncc1	1.442
CCn1nc(C)c(NC(=O)CN2CCC(c3ccccc3Cl)C2)c1C (stereo not shown)	35.39
O=C(O)C(F)(F)F.[H][C@]12CC(=O)N(CC3CC3)[C@@]1([H])CCN2Cc1ccccn1	2.957
COc1cccc(OC2CN(C(=O)CCn3cnnn3)C2)c1	1.202
COC(=O)c1cccc(S(=O)(=O)Nc2ccc(F)c(C(N)=O)c2)c1	2.032
N#Cc1cccc(C(=O)N2CC(c3nc(-c4ccc[nH]c4=O)no3)C2)c1	-10.55
CCS(=O)(=O)CC(C)N(C)C(=O)COc1ccccc1C#N (stereo not shown)	-8.567
CCc1c(C)nc2cc(C3CCN(Cc4ccccc4F)C3)nn2c1O (stereo not shown)	5.573
Cc1cc(C)c2c(N(C)CC3CCOC3)ncnc2n1 (stereo not shown)	-0.5634
Cc1ccc2cc(C(=O)N3CCC(O)(C(F)(F)F)CC3)ccc2n1	2.126
COC(=O)c1ccc(OCC(=O)N(C)Cc2ccsc2)c(OC)c1	11.39

The first 4 entries again:

SMILES	percent effect
O=c1ccc(-c2cccs2)nn1CN1CCN(C2CCS(=O)(=O)C2)CC1 (stereo not shown)	-20.22
COc1ccc2c(c1)C1(CCNCC1)CC2NC1CC1.Cl.Cl (stereo not shown)	-5.002
CC(C)Cc1cc(CC2(NCc3ccco3)COC2)no1	16.12
Fc1ccc(CN2CCCn3cnc(COCC4CC4)c3C2)cc1.O=C(O)C(F)(F)F	0